# From patent US10285972B2, “Trans-2-nonadecyl-4-hydroxymethyl-1,3-dioxolane and producing methodthereof” (Greenyn Biotechnology Co., Ltd, priority 2014, dated 2019)
# Tests used:
# [1] = Body weight and food intake of mice fed 45% high-fat diet for 8 weeks; type: in vivo, C57BL/6 mice; conditions: mean±SE
# Method: (§1) The 4 weeks-old male C57BL/6 mice were divided into 5 groups and treated with different feeding conditions, wherein the group 1 was the blank control fed with normal diet and water, the group 2 was fed with 45% high-fat diet and water, the group 3 was fed with 45% high-fat diet, water and 10 mg/Kg the compound TNHD, the group 4 was fed with 45% high-fat diet, water and 20 mg/Kg the compound TNHD, and the group 5 was fed with 45% high-fat diet, water and 200 mg/Kg Silymarin. Feeding for 8 weeks, and then all the mice were sacrificed.
# At the end of the experiment, taking photographs of the each group were shown as FIG. 4.
# The body weight and food intake in the each group were recorded in the table 1, wherein the data is expressed as the mean±SE.
# liver = test: Organ weights, liver appearance and liver staining (H&E, Surius red) of mice fed 45% high-fat diet; type: in vivo, C57BL/6 mice; conditions: 8 weeks
# Method: as §1
# The weights of liver, kidney and spleen of the mice in the each group were measured and recorded in table 2. The macroscopic appearance of the liver from the mice of the each group was shown as FIG. 6. Furthermore, the liver collected from the sacrificed mice in each groups was fixed with formalin. After the fixation, the liver tissue of the each group was paraffin-embedded for histology section and stained by H&E and Surius red for analysis.
# [2] = group 3: 45% high-fat diet + 10 mg/Kg TNHD
# [3] = group 4: 45% high-fat diet + 20 mg/Kg TNHD
smiles,measurement,setting,value
"CCCCCCCCCCCCCCCCCCC[C@@H]1OC[C@@H](CO)O1 (relative stereo) [TNHD, trans-2-nonadecyl-4-hydroxymethyl-1,3-dioxolane]",Food intake,[1]; [2],4.5 ± 0.2 g/mouse/day
same,Food intake,[1]; [3],3.7 ± 0.2 g/mouse/day
same,Kidney weight,liver; [2],1.51 ± 0.25 g
same,Spleen weight,liver; [2],0.30 ± 0.04 g
same,Kidney weight,liver; [3],1.63 ± 0.24 g
same,Spleen weight,liver; [3],0.53 ± 0.36 g
